These are yes or no findings as the source states them, for the method shown. Binding seen in cells or lysates may run through a third protein. Some entries that bind do so weakly or less than the wild type.
Key:
[1] = molecular target: FGFR1 N546K-BirA*-Flag (human) (UniProt P11362); experiment: co-IP; anti-FLAG antibody on Protein G Mag Sepharose beads, lysates of T-REx HEK293 stable cell lines (IP lysis buffer with 1% NP-40, 150 mM NaCl), overnight at 4 °C; blots for total and phosphorylated FGFR1 and PLCγ
[2] = molecular target: FGFR1 N546K/R661P-BirA*-Flag (human) (UniProt P11362); experiment: as above

Amino acid sequences for entries named in this document (tags omitted). A change or cut given only in a name is not applied to a line headed by its entry. Chains listed by the source or under a name are the forms on record and can include a tag or linker.
FGFR1 N546K-BirA*-Flag (P11362, form named): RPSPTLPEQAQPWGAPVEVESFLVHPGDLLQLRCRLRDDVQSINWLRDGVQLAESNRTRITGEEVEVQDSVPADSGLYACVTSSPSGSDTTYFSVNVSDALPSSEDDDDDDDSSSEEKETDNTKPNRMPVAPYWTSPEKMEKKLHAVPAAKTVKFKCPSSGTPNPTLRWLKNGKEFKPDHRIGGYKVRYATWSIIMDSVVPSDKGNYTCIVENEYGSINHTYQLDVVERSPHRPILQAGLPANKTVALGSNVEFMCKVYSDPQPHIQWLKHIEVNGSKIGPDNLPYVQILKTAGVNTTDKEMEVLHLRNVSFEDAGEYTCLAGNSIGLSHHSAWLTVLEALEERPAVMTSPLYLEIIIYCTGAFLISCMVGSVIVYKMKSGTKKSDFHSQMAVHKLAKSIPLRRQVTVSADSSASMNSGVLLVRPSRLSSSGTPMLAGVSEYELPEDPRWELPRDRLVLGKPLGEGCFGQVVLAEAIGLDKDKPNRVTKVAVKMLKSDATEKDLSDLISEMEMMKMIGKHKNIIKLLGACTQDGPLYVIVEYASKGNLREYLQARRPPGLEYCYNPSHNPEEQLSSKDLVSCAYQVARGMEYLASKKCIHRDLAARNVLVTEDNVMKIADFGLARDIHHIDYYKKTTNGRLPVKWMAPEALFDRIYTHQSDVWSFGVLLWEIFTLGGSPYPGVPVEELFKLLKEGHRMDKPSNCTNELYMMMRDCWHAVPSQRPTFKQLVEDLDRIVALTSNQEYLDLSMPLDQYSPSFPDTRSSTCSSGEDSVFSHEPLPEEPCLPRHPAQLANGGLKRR
FGFR1 N546K/R661P-BirA*-Flag (P11362, form named): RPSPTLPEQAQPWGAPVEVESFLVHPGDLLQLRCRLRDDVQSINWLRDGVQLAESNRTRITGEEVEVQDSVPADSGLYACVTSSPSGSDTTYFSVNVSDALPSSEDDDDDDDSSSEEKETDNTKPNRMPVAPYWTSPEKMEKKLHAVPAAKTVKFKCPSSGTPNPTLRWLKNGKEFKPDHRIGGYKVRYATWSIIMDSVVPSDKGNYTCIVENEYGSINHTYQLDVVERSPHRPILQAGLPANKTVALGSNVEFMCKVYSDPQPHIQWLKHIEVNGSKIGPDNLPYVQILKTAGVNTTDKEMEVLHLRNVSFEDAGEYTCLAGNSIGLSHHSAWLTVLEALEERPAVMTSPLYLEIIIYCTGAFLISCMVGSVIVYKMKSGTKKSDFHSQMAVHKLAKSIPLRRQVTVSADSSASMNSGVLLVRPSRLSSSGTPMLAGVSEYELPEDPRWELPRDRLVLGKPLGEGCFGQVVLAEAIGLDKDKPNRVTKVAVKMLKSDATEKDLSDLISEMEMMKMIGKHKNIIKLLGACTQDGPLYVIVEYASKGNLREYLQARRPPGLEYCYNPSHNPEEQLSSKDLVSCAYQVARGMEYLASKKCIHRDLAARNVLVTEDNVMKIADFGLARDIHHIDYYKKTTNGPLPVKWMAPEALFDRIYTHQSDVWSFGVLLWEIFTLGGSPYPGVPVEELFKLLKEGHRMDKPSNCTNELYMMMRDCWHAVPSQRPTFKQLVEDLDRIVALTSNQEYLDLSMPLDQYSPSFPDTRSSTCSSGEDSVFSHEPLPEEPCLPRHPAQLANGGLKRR

B1: phospholipase C gamma 1 (enzyme, UniProt P19174 1-1290)
chain: MAGAASPCANGCGPGAPSDAEVLHLCRSLEVGTVMTLFYSKKSQRPERKTFQVKLETRQITWSRGADKIEGAIDIREIKEIRPGKTSRDFDRYQEDPAFRPDQSHCFVILYGMEFRLKTLSLQATSEDEVNMWIKGLTWLMEDTLQAPTPLQIERWLRKQFYSVDRNREDRISAKDLKNMLSQVNYRVPNMRFLRERLTDLEQRSGDITYGQFAQLYRSLMYSAQKTMDLPFLEASTLRAGERPELCRVSLPEFQQFLLDYQGELWAVDRLQVQEFMLSFLRDPLREIEEPYFFLDEFVTFLFSKENSVWNSQLDAVCPDTMNNPLSHYWISSSHNTYLTGDQFSSESSLEAYARCLRMGCRCIELDCWDGPDGMPVIYHGHTLTTKIKFSDVLHTIKEHAFVASEYPVILSIEDHCSIAQQRNMAQYFKKVLGDTLLTKPVEISADGLPSPNQLKRKILIKHKKLAEGSAYEEVPTSMMYSENDISNSIKNGILYLEDPVNHEWYPHYFVLTSSKIYYSEETSSDQGNEDEEEPKEVSSSTELHSNEKWFHGKLGAGRDGRHIAERLLTEYCIETGAPDGSFLVRESETFVGDYTLSFWRNGKVQHCRIHSRQDAGTPKFFLTDNLVFDSLYDLITHYQQVPLRCNEFEMRLSEPVPQTNAHESKEWYHASLTRAQAEHMLMRVPRDGAFLVRKRNEPNSYAISFRAEGKIKHCRVQQEGQTVMLGNSEFDSLVDLISYYEKHPLYRKMKLRYPINEEALEKIGTAEPDYGALYEGRNPGFYVEANPMPTFKCAVKALFDYKAQREDELTFIKSAIIQNVEKQEGGWWRGDYGGKKQLWFPSNYVEEMVNPVALEPEREHLDENSPLGDLLRGVLDVPACQIAIRPEGKNNRLFVFSISMASVAHWSLDVAADSQEELQDWVKKIREVAQTADARLTEGKIMERRKKIALELSELVVYCRPVPFDEEKIGTERACYRDMSSFPETKAEKYVNKAKGKKFLQYNRLQLSRIYPKGQRLDSSNYDPLPMWICGSQLVALNFQTPDKPMQMNQALFMTGRHCGYVLQPSTMRDEAFDPFDKSSLRGLEPCAISIEVLGARHLPKNGRGIVCPFVEIEVAGAEYDSTKQKTEFVVDNGLNPVWPAKPFHFQISNPEFAFLRFVVYEEDMFSDQNFLAQATFPVKGLKTGYRAVPLKNNYSEDLELASLLIKIDIFPAKENGDLSPFSGTSLRERGSDASGQLFHGRAREGSFESRYQQPFEDFRISQEHLADHFDSRERRAPRRTRVNGDNRL
[1]
  binding: binds
[2]
  binding: binds

Reference: paper PMC12705663
